Values quoted from earlier work in patent US6515132B2, “Process for the preparation of rosiglitazone maleate” (priority 2000, dated 2003).
For at least one compound, name, drawing or mass did not settle the structure.

Settings: dose given in diet; comparative activity data for thiazolidinediones being clinically progressed

CCc1ccc(CCOc2ccc(CC3SC(=O)NC3=O)cc2)nc1 (centres unmarked) [Pioglitazone]
Minimum effective dose: 200 μmol/kg diet

Cc1c(C)c2c(c(C)c1O)CCC(C)(COc1ccc(CC3SC(=O)NC3=O)cc1)O2 (centres unmarked) [Troglitazone]
Minimum effective dose: 600 μmol/kg diet
